# Experimental data published in patent US20070037246A1.
# These are yes or no findings as the source states them, for the method shown. In cells and extracts the contact can be indirect. Some entries that bind do so weakly or less than the wild type. Tags and fused reporters may be left off the sequences shown.
# B1: Cys-6xHis-NTHS protein (protein)
# chain: MGCHHHHHHGSDSEVNQEAKPEVKPEVKPETHINLKVSDGSSEIFFKIKKTTPLRRLMEAFAK
# modifications: coupled through the engineered N-terminal cysteine to Sulfo-link resin
# Key:
# [1] = biological target: 6xHis-CTHS-GFP fusion protein (yeast (SUMO/Smt3 part)); experiment: pull-down from E. coli soluble proteins on protein-coupled resin, SDS-PAGE, Coomassie
# [2] = biological target: 6xHis-CTHS-GFP fusion protein (yeast (SUMO/Smt3 part)); experiment: pull-down from E. coli soluble proteins on Cys-6xHis-NTHS Sulfo-link resin, SDS-PAGE, Coomassie
binder,measurement,setting,value
B1,binding,[1],binds
same,binding,[2],binds
